Measured values published in the supplement of paper PMC7666118.
The list shows a part of the results.

Amino acid sequences for entries named in this document (tags omitted). A change or cut given only in a name is not applied to a line headed by its entry.
UniProt Q9NSE4: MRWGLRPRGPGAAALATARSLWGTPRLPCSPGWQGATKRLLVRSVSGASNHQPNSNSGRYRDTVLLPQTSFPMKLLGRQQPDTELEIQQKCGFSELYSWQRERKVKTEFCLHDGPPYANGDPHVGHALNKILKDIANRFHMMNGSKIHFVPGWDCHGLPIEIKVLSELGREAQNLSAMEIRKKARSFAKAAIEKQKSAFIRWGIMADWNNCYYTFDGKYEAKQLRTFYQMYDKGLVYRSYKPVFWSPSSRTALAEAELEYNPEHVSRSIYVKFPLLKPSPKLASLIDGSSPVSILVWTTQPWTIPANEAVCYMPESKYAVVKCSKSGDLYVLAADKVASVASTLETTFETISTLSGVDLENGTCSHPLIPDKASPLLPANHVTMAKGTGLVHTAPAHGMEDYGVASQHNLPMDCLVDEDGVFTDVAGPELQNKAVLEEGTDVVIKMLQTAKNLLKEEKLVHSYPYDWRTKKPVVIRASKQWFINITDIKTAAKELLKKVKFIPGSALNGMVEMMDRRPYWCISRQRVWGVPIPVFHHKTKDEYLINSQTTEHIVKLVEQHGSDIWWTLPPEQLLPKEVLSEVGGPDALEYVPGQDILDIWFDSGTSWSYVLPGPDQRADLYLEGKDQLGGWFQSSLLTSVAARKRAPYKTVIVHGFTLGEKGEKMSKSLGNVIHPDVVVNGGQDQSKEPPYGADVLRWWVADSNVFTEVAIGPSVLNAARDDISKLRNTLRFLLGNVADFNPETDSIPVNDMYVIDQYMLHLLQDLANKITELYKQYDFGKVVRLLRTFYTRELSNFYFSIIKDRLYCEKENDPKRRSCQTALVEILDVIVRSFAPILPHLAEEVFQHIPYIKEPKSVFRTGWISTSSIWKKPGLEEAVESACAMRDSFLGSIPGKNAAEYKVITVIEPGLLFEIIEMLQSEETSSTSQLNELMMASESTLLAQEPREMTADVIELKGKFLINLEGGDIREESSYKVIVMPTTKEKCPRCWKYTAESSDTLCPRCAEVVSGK
UniProt Q9Y6K9, whole entry: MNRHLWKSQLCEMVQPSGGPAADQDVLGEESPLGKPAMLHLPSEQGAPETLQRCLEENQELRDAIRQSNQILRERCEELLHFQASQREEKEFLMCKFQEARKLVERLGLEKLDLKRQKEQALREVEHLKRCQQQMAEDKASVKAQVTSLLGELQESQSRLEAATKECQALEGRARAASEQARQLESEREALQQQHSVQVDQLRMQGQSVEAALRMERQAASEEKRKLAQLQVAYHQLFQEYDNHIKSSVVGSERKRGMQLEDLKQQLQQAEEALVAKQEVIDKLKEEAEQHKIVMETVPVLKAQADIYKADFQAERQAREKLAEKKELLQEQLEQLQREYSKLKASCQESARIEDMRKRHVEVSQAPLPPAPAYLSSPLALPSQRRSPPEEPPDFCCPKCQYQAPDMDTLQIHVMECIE
UniProt Q06136: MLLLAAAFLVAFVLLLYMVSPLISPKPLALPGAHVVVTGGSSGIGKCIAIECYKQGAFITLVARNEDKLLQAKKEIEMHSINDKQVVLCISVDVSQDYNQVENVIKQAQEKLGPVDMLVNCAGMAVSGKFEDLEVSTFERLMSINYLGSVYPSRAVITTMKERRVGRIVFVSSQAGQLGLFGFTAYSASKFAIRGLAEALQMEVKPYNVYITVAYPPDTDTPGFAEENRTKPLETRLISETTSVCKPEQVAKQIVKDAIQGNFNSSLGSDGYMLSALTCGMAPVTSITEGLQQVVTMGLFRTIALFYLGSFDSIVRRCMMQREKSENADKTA
UniProt P05107, whole entry: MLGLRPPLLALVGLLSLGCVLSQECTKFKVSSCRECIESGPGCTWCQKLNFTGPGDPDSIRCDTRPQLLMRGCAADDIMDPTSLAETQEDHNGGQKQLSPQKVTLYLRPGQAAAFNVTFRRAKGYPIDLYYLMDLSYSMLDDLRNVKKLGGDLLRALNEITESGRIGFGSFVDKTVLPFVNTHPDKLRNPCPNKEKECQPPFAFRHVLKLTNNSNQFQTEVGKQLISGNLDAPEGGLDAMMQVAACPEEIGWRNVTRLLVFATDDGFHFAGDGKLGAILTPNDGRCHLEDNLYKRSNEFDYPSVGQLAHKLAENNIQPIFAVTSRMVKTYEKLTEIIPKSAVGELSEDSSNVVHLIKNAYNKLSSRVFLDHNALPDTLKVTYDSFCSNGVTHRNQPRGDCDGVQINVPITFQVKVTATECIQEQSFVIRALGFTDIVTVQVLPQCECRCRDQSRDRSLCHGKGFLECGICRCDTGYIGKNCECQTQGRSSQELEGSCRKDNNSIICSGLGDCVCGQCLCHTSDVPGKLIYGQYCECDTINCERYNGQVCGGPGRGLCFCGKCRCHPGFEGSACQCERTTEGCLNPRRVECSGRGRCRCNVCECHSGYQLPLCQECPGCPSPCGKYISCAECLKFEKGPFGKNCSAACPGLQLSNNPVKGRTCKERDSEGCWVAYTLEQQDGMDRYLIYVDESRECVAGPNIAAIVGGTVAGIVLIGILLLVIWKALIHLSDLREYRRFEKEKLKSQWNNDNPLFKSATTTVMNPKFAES
UniProt Q16666: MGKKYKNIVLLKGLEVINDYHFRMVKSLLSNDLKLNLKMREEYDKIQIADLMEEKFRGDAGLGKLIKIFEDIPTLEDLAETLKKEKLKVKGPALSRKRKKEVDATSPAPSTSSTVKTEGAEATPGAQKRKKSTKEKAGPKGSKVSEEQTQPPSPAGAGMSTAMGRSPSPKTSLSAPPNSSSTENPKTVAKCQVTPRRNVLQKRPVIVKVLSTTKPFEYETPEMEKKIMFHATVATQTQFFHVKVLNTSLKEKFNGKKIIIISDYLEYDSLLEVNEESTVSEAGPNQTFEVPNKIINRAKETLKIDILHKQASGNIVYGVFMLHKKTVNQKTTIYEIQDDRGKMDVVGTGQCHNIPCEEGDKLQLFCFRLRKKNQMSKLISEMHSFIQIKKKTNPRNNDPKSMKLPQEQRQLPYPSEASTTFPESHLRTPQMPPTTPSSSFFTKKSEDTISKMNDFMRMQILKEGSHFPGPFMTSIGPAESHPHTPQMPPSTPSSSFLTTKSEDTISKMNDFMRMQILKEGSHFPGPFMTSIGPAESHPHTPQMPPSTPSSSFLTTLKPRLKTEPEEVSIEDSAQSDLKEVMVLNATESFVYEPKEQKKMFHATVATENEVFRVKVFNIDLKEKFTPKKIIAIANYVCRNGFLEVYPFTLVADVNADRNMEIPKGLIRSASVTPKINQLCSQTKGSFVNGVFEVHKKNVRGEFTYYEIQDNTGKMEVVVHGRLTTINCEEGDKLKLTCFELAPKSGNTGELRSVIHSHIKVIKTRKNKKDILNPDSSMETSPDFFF
UniProt Q13422: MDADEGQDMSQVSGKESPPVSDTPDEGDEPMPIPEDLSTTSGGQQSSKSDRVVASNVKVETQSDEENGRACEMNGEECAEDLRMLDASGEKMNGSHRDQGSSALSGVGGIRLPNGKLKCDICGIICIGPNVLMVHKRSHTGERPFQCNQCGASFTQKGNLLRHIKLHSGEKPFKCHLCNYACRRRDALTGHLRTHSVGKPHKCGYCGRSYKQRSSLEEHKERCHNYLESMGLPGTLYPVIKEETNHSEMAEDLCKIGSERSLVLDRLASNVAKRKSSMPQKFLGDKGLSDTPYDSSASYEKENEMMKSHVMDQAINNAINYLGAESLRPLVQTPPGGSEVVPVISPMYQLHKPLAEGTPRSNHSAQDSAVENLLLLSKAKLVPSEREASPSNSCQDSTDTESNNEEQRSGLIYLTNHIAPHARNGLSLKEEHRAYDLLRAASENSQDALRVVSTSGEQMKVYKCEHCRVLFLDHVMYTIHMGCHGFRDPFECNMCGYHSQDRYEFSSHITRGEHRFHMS
UniProt Q9BXK1: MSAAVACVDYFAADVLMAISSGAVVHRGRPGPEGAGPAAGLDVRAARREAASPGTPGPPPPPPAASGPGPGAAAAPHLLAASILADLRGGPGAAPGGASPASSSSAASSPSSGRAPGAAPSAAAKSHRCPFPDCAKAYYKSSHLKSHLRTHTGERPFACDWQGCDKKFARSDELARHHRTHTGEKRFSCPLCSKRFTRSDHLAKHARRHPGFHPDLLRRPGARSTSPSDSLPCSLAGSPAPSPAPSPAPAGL
UniProt O95163: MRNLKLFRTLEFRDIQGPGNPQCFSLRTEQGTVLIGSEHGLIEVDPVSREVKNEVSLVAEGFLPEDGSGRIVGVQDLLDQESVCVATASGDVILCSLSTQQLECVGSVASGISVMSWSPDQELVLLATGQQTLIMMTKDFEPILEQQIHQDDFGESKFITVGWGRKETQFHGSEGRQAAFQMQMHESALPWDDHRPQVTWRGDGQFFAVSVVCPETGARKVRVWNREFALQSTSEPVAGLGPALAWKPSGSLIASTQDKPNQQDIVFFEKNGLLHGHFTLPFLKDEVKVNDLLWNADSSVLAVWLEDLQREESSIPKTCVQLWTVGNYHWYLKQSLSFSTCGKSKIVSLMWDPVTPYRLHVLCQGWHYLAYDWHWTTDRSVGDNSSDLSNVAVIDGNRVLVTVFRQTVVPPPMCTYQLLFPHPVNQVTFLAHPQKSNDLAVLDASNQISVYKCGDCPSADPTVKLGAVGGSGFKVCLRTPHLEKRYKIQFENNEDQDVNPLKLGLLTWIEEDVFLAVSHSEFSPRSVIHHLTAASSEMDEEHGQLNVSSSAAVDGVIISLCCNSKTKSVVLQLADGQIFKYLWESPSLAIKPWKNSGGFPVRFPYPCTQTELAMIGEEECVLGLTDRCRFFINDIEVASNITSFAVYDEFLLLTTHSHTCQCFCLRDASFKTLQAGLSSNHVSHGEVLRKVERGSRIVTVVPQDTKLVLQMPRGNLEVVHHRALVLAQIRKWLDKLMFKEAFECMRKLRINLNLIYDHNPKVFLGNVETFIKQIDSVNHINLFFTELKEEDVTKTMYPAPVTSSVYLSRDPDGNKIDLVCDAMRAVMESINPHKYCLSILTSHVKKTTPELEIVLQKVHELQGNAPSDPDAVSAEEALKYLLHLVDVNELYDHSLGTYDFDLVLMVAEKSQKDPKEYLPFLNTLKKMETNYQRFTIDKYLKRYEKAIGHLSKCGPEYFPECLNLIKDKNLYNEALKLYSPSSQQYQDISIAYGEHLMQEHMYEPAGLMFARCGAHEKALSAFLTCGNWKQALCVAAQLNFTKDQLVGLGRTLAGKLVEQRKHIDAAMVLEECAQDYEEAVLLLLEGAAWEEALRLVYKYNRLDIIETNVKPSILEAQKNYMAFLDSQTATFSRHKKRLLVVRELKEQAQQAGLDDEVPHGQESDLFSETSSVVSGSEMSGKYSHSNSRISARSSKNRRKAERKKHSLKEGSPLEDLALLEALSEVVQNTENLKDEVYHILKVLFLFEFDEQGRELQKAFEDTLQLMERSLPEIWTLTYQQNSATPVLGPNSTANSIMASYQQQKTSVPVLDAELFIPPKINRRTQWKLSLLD
UniProt O76095: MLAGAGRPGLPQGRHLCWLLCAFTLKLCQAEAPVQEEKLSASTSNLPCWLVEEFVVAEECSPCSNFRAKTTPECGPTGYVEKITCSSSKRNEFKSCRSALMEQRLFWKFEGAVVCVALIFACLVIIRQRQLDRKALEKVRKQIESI
UniProt Q6P9B9, whole entry: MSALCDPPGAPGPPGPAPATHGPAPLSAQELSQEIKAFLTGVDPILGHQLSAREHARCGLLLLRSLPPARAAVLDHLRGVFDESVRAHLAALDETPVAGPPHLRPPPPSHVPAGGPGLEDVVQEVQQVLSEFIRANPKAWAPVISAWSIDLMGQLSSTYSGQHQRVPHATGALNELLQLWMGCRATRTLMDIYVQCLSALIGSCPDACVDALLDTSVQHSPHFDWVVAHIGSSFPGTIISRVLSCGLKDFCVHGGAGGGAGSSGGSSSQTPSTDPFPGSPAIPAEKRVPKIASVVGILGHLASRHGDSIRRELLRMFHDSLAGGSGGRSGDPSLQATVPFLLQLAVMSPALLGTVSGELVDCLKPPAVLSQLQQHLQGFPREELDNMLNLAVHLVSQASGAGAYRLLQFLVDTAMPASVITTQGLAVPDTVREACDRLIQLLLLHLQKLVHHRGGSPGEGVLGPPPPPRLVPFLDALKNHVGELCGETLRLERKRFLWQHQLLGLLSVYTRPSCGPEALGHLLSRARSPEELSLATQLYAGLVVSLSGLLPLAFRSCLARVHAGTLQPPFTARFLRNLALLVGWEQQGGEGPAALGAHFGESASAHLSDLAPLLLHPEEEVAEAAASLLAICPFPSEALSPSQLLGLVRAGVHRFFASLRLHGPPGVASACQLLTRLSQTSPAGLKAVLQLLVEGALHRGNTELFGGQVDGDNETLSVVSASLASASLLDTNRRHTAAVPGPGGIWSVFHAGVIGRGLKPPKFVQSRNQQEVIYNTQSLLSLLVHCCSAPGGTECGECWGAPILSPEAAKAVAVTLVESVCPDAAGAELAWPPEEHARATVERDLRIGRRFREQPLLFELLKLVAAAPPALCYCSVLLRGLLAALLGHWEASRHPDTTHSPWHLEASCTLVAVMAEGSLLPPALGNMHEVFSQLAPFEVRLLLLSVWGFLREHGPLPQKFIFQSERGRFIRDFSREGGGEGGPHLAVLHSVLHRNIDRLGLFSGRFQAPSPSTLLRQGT

Compound: COc1ccc(Cn2ccc3cc(C)c(C(=O)NO)cc32)cc1
Experiment: dose-dependent thermal stabilisation call (2D-TPP, DLPTP, 10% FDR) (binary (1 = stabilised)); higher = stabilised by the compound
Conditions: system: HL-60 intact cells; concentration range 0.04-10 µM
Experimental: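 2D thermal proteome profiling in intact HL-60 cells treated with BRD-3811 (0, 0.04, 0.29, 2, 10 uM) for 90 min at 37 C, then heated 3 min at one of 12 temperatures (42-63.9 C). Soluble protein was quantified by TMT10 MS. The value is the DLPTP call of the paper: dose-dependent thermal stabilisation over all temperatures at 10% FDR (F-test of a dose-response against a flat model); one experiment, one call per tested protein.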

With KPNA4 (UniProt O00629) as the target, how does the “dose-dependent thermal stabilisation call” value read?
Its value is inactive: 0.

Which “dose-dependent thermal stabilisation call” value does the source give for IARS2 (UniProt Q9NSE4) here?
The value was inactive: 0.

How did the “dose-dependent thermal stabilisation call” value turn out when ITM2C (UniProt Q9NQX7) was run?
The value was inactive: 0.

How did the “dose-dependent thermal stabilisation call” value turn out when IKBKG (UniProt Q9Y6K9) was run?
Its value is inactive: 0.

For ILK (UniProt Q13418), which “dose-dependent thermal stabilisation call” value is on record?
Its value is inactive: 0.

For KDSR (UniProt Q06136), which “dose-dependent thermal stabilisation call” value is on record?
Its value is inactive: 0.

With IWS1 (UniProt Q96ST2) as the target, how does the “dose-dependent thermal stabilisation call” value read?
Its value is inactive: 0.

For ITSN2 (UniProt Q9NZM3), which “dose-dependent thermal stabilisation call” value is on record?
Its value is inactive: 0.

With ITGB2 (UniProt P05107) as the target, how does the “dose-dependent thermal stabilisation call” value read?
Its value is inactive: 0.

IFI16 (UniProt Q16666) was tested. Which “dose-dependent thermal stabilisation call” value did it give?
Its value is inactive: 0.

IKZF1 (UniProt Q13422) was tested. Which “dose-dependent thermal stabilisation call” value did it give?
Its value is inactive: 0.

With KLF16 (UniProt Q9BXK1) as the target, how does the “dose-dependent thermal stabilisation call” value read?
The value was inactive: 0.

How did the “dose-dependent thermal stabilisation call” value turn out when INPPL1 (UniProt O15357) was run?
Its value is inactive: 0.

With HSPH1 (UniProt Q92598) as the target, how does the “dose-dependent thermal stabilisation call” value read?
The value was inactive: 0.

How did the “dose-dependent thermal stabilisation call” value turn out when KIF3A (UniProt Q9Y496) was run?
The value was inactive: 0.

For KIAA0564 (UniProt A3KMH1), which “dose-dependent thermal stabilisation call” value is on record?
Its value is inactive: 0.

Which “dose-dependent thermal stabilisation call” value does the source give for KPNA2 (UniProt P52292) here?
Its value is inactive: 0.

With IRS2 (UniProt Q9Y4H2) as the target, how does the “dose-dependent thermal stabilisation call” value read?
Its value is inactive: 0.

With INTS3 (UniProt Q68E01) as the target, how does the “dose-dependent thermal stabilisation call” value read?
The value was inactive: 0.

JUN (UniProt P05412) was tested. Which “dose-dependent thermal stabilisation call” value did it give?
The value was inactive: 0.

IPO5 (UniProt O00410) was tested. Which “dose-dependent thermal stabilisation call” value did it give?
The value was inactive: 0.

How did the “dose-dependent thermal stabilisation call” value turn out when ILF3 (UniProt Q12906) was run?
The value was inactive: 0.

Which “dose-dependent thermal stabilisation call” value does the source give for KIAA1274 (UniProt Q9ULE6) here?
Its value is inactive: 0.

For KPTN (UniProt Q9Y664), which “dose-dependent thermal stabilisation call” value is on record?
The value was inactive: 0.

For KDELC1 (UniProt Q6UW63), which “dose-dependent thermal stabilisation call” value is on record?
Its value is inactive: 0.

How did the “dose-dependent thermal stabilisation call” value turn out when KLC1 (UniProt Q07866) was run?
Its value is inactive: 0.

With ITGA6 (UniProt P23229) as the target, how does the “dose-dependent thermal stabilisation call” value read?
Its value is inactive: 0.

For KIAA1712 (UniProt Q9C0F1), which “dose-dependent thermal stabilisation call” value is on record?
The value was inactive: 0.

KBTBD2 (UniProt Q8IY47) was tested. Which “dose-dependent thermal stabilisation call” value did it give?
The value was inactive: 0.

With INTS12 (UniProt Q96CB8) as the target, how does the “dose-dependent thermal stabilisation call” value read?
The value was inactive: 0.

For IKBKAP (UniProt O95163), which “dose-dependent thermal stabilisation call” value is on record?
Its value is inactive: 0.

With KPNA1 (UniProt P52294) as the target, how does the “dose-dependent thermal stabilisation call” value read?
The value was inactive: 0.

For IER3IP1 (UniProt Q9Y5U9), which “dose-dependent thermal stabilisation call” value is on record?
Its value is inactive: 0.

For JTB (UniProt O76095), which “dose-dependent thermal stabilisation call” value is on record?
The value was inactive: 0.

Which “dose-dependent thermal stabilisation call” value does the source give for KIAA0409 (UniProt O43159) here?
Its value is inactive: 0.

INTS5 (UniProt Q6P9B9) was tested. Which “dose-dependent thermal stabilisation call” value did it give?
The value was inactive: 0.
